{"source": "patent US20240307414A1", "about": "“METHODS AND MATERIALS FOR TREATING PROSTATE CANCER” (Mayo Foundation for Medical Education and Research, priority 2020, published 2024)", "tested_on": "MC-PRX-01 PDX tumor", "test": "MC-PRX-01 PDX model treated with abiraterone ± palbociclib/PHA-793887, 35 days", "format": "in vivo, mice", "conditions": "tested dosage", "method": "All patient specimens were collected as part of the PROMOTE study as described elsewhere (see, for example, Champoux. Annu. Rev. Biochem., 70, 369-413 (2001); and Kellner et al., Lancet Oncol., 3, 235-243 (2002)). Briefly, pathology confirmed metastatic tumor biopsy tissues of mCRPC was renal capsule xenografted and 25 mg testosterone pellet was subcutaneously implanted into 6-8 weeks old male CB17 NOD-SCID mice (Jackson laboratories, Bar Harbor, Maine; Charles River Laboratories, Raleigh, North Carolina) and observed for at least 6 months or till the tumor reached 1.0-1.5 cm at maximal length, when sub-xenografts were expanded by subcutaneous implantation with harvested PDX tumor mixed with Matrigel (Corning, Corning, New York) with no exogenous testosterone supplied. Early generation PDX tumors were collected for cryo-storage and next-generation sequencing. Pathology confirmed PDX model generated from AA/P non-responder bone metastatic tumor biopsy tissues were employed to test the in vivo tumor response to abiraterone+Mito/Dox/Palb/PHA. After PDX tumor reached approximately 100 mm3, mice were randomized to 6 groups. […] Body weight and tumor volumes (width^2×length/2) were measured two to three times per week with a digital caliper, and the average tumor volumes were determined. […]", "note": "At least one compound was matched to its structure with a doubt left.", "data": [{"smiles": "CC(=O)c1c(C)c2cnc(Nc3ccc(N4CCNCC4)cn3)nc2n(C2CCCC2)c1=O", "note": "[palbociclib]", "values": [{"measurement": "tumor growth inhibition as single treatment", "result": "effective as single treatment"}]}]}
